The record followed here is the supplement of paper PMC12067093, “Discovery and optimisation of a covalent ligand for TRIM25 and its application to targeted protein ubiquitination” (Chemical Science, 2025).

Protein sequences, listed by entry. Tags and fused reporters are not part of them. Lines headed by an entry give the natural chain unless they say otherwise; changes in a name come on top.
UniProt P11177, whole entry, looked up: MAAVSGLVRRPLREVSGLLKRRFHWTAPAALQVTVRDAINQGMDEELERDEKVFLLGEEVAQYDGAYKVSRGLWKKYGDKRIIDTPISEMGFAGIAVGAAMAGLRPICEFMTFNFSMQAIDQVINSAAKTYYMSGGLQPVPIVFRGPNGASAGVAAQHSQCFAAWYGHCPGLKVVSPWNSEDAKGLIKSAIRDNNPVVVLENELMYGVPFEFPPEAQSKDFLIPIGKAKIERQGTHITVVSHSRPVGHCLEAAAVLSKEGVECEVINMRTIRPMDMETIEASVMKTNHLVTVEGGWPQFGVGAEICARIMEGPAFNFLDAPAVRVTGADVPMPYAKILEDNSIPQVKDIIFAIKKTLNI
UniProt Q15004: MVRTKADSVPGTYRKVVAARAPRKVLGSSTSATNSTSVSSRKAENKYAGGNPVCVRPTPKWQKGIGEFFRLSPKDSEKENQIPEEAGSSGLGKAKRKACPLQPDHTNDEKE
UniProt Q96GD0: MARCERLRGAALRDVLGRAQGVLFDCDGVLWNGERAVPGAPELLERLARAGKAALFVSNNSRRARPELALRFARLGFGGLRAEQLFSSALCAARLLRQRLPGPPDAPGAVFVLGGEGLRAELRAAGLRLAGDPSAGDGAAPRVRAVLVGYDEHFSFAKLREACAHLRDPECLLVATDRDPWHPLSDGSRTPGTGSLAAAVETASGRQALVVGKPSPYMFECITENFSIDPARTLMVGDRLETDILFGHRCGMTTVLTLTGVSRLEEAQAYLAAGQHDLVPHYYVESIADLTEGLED
UniProt Q15365, whole entry, looked up: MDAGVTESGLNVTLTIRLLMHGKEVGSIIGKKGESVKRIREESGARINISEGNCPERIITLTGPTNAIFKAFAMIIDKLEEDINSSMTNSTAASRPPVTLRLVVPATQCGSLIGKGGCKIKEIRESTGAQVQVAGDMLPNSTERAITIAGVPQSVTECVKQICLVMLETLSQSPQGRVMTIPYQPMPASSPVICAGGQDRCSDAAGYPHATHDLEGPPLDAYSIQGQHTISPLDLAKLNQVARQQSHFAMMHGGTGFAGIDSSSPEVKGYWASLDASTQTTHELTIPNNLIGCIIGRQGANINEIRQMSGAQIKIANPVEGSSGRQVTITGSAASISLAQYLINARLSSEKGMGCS
UniProt Q99447: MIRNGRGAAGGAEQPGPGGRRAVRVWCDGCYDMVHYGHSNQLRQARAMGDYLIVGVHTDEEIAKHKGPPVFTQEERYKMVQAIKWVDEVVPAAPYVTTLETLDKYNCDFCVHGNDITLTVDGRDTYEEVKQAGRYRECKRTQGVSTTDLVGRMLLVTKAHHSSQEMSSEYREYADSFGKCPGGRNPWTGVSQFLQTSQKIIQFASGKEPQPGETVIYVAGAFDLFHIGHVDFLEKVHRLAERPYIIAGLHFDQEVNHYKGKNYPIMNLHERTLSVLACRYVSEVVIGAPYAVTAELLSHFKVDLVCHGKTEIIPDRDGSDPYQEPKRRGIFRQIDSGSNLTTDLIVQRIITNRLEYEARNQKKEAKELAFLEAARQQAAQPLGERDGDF
UniProt Q86U86, whole entry, looked up: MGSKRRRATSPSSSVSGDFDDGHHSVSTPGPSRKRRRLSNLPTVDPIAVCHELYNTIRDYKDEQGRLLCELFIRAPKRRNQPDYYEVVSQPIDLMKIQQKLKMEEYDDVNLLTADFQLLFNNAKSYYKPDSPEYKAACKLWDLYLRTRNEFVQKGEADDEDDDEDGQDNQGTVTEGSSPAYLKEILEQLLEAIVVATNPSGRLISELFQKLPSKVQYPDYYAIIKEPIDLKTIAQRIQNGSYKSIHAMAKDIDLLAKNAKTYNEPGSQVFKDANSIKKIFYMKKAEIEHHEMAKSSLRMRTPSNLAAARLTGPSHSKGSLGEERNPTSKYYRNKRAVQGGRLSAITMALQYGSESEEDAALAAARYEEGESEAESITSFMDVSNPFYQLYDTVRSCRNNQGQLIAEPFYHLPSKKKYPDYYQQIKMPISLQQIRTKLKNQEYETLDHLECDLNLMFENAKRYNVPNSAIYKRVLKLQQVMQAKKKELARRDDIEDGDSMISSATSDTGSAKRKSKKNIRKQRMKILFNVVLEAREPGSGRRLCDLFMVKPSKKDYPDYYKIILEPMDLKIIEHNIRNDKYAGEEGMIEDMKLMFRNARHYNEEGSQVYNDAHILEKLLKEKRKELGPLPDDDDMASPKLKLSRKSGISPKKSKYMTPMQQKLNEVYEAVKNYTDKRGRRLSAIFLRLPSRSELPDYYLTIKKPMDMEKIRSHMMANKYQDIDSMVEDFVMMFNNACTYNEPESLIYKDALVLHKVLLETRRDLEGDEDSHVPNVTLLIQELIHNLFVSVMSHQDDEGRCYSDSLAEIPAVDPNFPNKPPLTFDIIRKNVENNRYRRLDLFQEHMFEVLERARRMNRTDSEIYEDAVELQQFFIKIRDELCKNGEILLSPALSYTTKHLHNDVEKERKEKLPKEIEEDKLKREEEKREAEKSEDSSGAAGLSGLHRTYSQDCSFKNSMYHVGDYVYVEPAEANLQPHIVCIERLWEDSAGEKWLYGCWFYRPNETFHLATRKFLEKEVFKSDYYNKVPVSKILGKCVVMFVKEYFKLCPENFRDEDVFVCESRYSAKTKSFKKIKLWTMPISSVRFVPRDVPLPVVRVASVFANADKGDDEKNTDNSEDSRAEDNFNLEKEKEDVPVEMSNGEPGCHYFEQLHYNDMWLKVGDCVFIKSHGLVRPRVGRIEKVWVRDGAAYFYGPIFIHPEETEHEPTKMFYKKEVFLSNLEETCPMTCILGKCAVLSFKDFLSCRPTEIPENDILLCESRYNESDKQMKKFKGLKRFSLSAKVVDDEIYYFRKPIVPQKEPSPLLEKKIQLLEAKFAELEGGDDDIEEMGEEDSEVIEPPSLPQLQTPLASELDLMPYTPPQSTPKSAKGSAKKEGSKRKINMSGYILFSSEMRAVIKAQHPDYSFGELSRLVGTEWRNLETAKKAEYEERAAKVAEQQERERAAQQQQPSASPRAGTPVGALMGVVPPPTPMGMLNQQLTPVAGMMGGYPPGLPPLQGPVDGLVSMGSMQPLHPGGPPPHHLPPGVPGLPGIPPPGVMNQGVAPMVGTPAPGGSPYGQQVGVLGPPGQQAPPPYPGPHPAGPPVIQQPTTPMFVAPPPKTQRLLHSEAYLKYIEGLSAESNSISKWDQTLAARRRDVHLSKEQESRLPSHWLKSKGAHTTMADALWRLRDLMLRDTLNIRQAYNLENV
UniProt Q9NR12, whole entry, looked up: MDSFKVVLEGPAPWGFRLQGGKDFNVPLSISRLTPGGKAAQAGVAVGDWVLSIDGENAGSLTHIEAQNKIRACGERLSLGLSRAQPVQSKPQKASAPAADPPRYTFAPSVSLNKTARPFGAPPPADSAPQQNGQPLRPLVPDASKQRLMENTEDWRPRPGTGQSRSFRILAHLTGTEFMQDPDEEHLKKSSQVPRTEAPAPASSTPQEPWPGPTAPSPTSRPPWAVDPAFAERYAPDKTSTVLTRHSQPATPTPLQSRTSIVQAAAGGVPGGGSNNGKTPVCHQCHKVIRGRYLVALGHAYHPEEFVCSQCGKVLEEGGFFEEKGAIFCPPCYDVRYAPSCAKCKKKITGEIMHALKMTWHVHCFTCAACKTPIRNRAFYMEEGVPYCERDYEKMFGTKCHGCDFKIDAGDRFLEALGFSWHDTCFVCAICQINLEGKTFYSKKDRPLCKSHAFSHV
UniProt Q14690: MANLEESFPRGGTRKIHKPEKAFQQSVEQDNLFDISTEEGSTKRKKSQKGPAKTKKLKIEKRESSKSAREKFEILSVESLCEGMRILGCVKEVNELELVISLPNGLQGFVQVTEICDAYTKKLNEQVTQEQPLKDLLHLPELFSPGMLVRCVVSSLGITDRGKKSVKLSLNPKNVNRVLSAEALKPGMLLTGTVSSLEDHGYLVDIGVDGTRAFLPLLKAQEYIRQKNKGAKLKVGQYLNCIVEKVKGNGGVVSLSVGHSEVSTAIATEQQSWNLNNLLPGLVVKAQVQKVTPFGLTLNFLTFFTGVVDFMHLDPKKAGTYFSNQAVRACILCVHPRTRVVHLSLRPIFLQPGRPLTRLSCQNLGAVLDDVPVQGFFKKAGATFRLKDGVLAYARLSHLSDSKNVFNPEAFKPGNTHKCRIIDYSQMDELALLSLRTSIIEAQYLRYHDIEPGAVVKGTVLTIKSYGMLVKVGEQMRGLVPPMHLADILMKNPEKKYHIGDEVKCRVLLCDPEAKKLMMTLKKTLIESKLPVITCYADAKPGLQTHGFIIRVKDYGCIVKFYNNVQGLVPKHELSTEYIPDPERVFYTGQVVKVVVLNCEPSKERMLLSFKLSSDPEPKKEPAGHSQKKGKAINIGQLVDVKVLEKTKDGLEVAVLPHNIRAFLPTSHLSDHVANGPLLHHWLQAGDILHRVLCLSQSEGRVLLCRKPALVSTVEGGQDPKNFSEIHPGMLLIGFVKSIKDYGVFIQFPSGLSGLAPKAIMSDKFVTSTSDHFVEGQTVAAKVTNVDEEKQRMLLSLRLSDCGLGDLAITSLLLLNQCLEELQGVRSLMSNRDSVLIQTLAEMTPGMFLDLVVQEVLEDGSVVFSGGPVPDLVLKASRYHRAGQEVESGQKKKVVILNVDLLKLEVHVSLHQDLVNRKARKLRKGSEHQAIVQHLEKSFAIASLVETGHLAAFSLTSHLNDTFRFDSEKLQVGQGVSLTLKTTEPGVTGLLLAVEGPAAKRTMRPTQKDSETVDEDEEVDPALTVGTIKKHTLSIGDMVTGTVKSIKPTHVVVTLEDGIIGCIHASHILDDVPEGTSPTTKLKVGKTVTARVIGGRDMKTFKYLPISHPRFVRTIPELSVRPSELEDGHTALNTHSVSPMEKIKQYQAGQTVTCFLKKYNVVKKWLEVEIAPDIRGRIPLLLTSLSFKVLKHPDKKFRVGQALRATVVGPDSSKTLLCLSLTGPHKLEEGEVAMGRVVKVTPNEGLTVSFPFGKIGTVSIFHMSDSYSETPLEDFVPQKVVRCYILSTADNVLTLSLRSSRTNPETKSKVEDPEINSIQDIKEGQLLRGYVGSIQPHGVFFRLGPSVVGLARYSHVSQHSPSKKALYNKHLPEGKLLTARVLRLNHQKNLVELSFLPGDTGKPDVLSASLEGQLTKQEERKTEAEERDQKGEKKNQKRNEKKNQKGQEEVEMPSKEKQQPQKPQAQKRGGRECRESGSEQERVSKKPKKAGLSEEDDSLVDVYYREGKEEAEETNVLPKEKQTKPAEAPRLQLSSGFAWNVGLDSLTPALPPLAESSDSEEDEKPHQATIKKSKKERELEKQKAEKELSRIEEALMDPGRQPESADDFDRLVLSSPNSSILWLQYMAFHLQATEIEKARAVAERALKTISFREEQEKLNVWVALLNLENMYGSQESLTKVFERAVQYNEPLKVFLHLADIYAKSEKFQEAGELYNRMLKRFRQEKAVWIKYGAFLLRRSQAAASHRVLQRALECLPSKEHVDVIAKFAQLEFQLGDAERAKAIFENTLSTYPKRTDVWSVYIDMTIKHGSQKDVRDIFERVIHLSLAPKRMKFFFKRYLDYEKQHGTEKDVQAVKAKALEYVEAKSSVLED
UniProt P12004, whole entry, looked up: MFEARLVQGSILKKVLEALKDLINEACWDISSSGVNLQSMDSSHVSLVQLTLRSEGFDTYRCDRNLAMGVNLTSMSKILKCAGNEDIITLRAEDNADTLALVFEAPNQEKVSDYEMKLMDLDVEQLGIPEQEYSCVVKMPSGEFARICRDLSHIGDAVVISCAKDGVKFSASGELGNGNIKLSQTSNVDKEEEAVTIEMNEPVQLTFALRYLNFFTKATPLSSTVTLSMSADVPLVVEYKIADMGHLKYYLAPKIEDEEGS
UniProt P57721, whole entry, looked up: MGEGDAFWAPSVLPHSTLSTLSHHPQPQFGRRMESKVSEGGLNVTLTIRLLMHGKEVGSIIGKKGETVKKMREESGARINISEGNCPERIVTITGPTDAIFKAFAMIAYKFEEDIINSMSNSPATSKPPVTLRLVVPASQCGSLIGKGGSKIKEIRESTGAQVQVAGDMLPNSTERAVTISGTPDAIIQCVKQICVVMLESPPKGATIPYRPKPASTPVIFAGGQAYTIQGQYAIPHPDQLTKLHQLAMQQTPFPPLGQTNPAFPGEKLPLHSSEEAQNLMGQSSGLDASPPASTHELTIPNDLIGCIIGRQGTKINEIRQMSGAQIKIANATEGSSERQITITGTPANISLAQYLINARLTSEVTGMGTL
UniProt Q15084: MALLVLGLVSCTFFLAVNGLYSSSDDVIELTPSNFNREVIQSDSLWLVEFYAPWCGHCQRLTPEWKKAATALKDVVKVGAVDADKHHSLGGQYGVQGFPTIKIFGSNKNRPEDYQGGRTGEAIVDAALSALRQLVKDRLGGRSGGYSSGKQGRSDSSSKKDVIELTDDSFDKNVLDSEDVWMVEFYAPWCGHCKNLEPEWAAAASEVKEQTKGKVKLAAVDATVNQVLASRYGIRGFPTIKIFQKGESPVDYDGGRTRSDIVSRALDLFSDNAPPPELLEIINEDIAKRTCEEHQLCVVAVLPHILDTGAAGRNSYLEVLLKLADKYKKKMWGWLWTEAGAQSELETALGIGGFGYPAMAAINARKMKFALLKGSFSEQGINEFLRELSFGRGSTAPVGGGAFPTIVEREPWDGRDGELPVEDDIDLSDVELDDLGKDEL

The list shows a part of the results.

Compound in this assay: Cc1cc(ccc1-c1ccccc1)C(=O)N1CCCN(CC1)C(=O)CCl [compound 10]
The assay is described as follows: probe-labelled cysteine peptide fold change vs DMSO (competition) (log2 fold change); higher = less target engagement (more negative = stronger competition). Conditions: THP-1, incubation time: 4 h.
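Further: competitive profiling in live THP-1 cells: cysteine peptides tagged with an iodoacetamide desthiobiotin (IA-DTB) probe, intensity after compound treatment relative to DMSO-treated cells.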

For the target “PCNT_O95613_430_CLEDLEFK (UniProt O95613)”, the “probe-labelled cysteine peptide fold change” value (10 µM) is -0.147 and the “probe-labelled cysteine peptide fold change” value (50 µM) is -0.19.
Regarding “PDHB_P11177_161_GPNGASAGVAAQHSQCFAAWYGHCPGLK (UniProt P11177)”, the “probe-labelled cysteine peptide fold change” value runs as follows: (10 µM) 0.0402; (50 µM) 0.218.
As to “PDP1_Q9P0J1_275_VAFSGATACVAHVDGVDLHVANTGDSR (UniProt Q9P0J1)”, the “probe-labelled cysteine peptide fold change” value by setting is: (10 µM) 0.0491; (50 µM) 0.315.
As to “PDIA5_Q14554_451_IACAAVDCVK (UniProt Q14554)”, the “probe-labelled cysteine peptide fold change” value was -0.117 (10 µM) and -0.18 (50 µM).
Consider “PCLAF_Q15004_99_ACPLQPDHTNDEKE (UniProt Q15004)”, for which the “probe-labelled cysteine peptide fold change” value runs as follows: (10 µM) 0.0965; (50 µM) -0.832.
For the target “PDXP_Q96GD0_91_AEQLFSSALCAAR (UniProt Q96GD0)”, the “probe-labelled cysteine peptide fold change” value reads like this: (10 µM) -0.097; (50 µM) -0.0191.
For “PCBP1_Q15365_158_AITIAGVPQSVTECVK (UniProt Q15365)” the same measures were 0.332 and -0.0314.
For the target “PCYT2_Q99447_306_VDLVCHGK (UniProt Q99447)”, the “probe-labelled cysteine peptide fold change” value reads like this: (10 µM) 0.157; (50 µM) 0.181.
As to “PBRM1_Q86U86_1233_CAVLSFK (UniProt Q86U86)”, the “probe-labelled cysteine peptide fold change” value (10 µM) was -0.307 and the “probe-labelled cysteine peptide fold change” value (50 µM) was -0.164.
For “PDCD2L_Q9BRP1_260_IAACQEQILR (UniProt Q9BRP1)”, the “probe-labelled cysteine peptide fold change” value (10 µM) amounted to 0.209 and the “probe-labelled cysteine peptide fold change” value (50 µM) worked out at 0.22.
Turning to “PDCL_Q13371_35_CAPASSSVPAEAELAGEGISVNTGPK (UniProt Q13371)”, the “probe-labelled cysteine peptide fold change” value (10 µM) is -0.437 and the “probe-labelled cysteine peptide fold change” value (50 µM) was 0.0997.
Consider “PDLIM7_Q9NR12_341_YAPSCAK (UniProt Q9NR12)”, for which the “probe-labelled cysteine peptide fold change” value (10 µM) is -0.069 and the “probe-labelled cysteine peptide fold change” value (50 µM) was -0.47.
In the case of “PDCD11_Q14690_1218_TLLCLSLTGPHK (UniProt Q14690)”, the “probe-labelled cysteine peptide fold change” value by setting is: (10 µM) -0.0371; (50 µM) 0.106.
For “PDE12_Q6L8Q7_180_YIMAGFPVCPK (UniProt Q6L8Q7)” the same measures were -0.0396 and -0.16.
“PDS5A_Q29RF7_14_PATALCGVVSADGK (UniProt Q29RF7)”: the “probe-labelled cysteine peptide fold change” value is, setting by setting: (10 µM) -0.366; (50 µM) -0.589.
For the target “PARP4_Q9UKK3_45_FSFSLNPQCTHIILDNADVLSQYQLNSIQK (UniProt Q9UKK3)”, the “probe-labelled cysteine peptide fold change” value is 0.267 (10 µM) and -0.23 (50 µM).
Turning to “PDCD2_Q16342_281_DIPDCPCGAK (UniProt Q16342)”, the “probe-labelled cysteine peptide fold change” value was -0.0904 (10 µM) and -0.265 (50 µM).
As for “PCGF5_Q86SE9_53_TCIVQHFEDSNDCPR (UniProt Q86SE9)”, the “probe-labelled cysteine peptide fold change” value by setting is: (10 µM) 0.388; (50 µM) 0.504.
Turning to “PDS5B_Q9NTI5_571_QLEVLVSPTCSCK (UniProt Q9NTI5)”, the “probe-labelled cysteine peptide fold change” value is 0.0189 (10 µM) and -0.0846 (50 µM).
For “PDCD11_Q14690_535_LPVITCYADAK (UniProt Q14690)” the same measures were -0.0187 and 0.416.
For “PCNA_P12004_135_LMDLDVEQLGIPEQEYSCVVK (UniProt P12004)” the same measures were 0.15 and -0.109.
For the target “PDHB_P11177_263_EGVECEVINMR (UniProt P11177)”, the “probe-labelled cysteine peptide fold change” value is, setting by setting: (10 µM) 0.0305; (50 µM) -0.104.
Regarding “PDLIM7_Q9NR12_388_AFYMEEGVPYCER (UniProt Q9NR12)”, the “probe-labelled cysteine peptide fold change” value is, setting by setting: (10 µM) -0.17; (50 µM) -0.159.
“PDF_Q9HBH1_172_LVTFPEGCESVAGFLACVPR (UniProt Q9HBH1)”: the “probe-labelled cysteine peptide fold change” value is, setting by setting: (10 µM) 0.0175; (50 µM) 0.519.
Regarding “PDS5A_Q29RF7_589_QADICVR (UniProt Q29RF7)”, the “probe-labelled cysteine peptide fold change” value (10 µM) amounted to 0.077 and the “probe-labelled cysteine peptide fold change” value (50 µM) was -0.379.
In the case of “PDCD11_Q14690_330+333_ACILCVHPR (UniProt Q14690)”, the “probe-labelled cysteine peptide fold change” value reads like this: (10 µM) 0.0345; (50 µM) 0.0766.
“PBRM1_Q86U86_1244+1257_DFLSCRPTEIPENDILLCESR (UniProt Q86U86)”: the “probe-labelled cysteine peptide fold change” value is -0.111 (10 µM) and 0.0674 (50 µM).
As to “PCCA_P05165_155_CLAAEDVVFIGPDTHAIQAMGDKIESK (UniProt P05165)”, the “probe-labelled cysteine peptide fold change” value (10 µM) is -0.0769 and the “probe-labelled cysteine peptide fold change” value (50 µM) was -0.234.
For “PDIA4_P13667_94_DTVLLEFYAPWCGHCK (UniProt P13667)”, the “probe-labelled cysteine peptide fold change” value reads like this: (10 µM) -0.0929; (50 µM) -1.03.
In the same order, the values of “PCBP3_P57721_141_LVVPASQCGSLIGK (UniProt P57721)” are -0.227 and -0.208.
For “PCBP3_P57721_195_QICVVMLESPPK (UniProt P57721)” the same measures were 0.0221 and -0.183.
For “PDIA6_Q15084_193_NVLDSEDVWMVEFYAPWCGHCK (UniProt Q15084)” the same measures were -0.216 and 0.0693.
Consider “PDLIM4_P50479_258_CGHGIVGTIVK (UniProt P50479)”, for which the “probe-labelled cysteine peptide fold change” value is -0.0847 (10 µM) and -0.546 (50 µM).
Take “PARP8_Q8N3A8_332_TDDVCVTK (UniProt Q8N3A8)”: the “probe-labelled cysteine peptide fold change” value runs as follows: (10 µM) -0.15; (50 µM) 0.0356.
“PCBP1_Q15365_194_VMTIPYQPMPASSPVICAGGQDR (UniProt Q15365)”: the “probe-labelled cysteine peptide fold change” value was 0.168 (10 µM) and 0.0443 (50 µM).
For the target “PCM1_Q15154_1717_IEATGVIQSCAK (UniProt Q15154)”, the “probe-labelled cysteine peptide fold change” value (10 µM) is -0.344 and the “probe-labelled cysteine peptide fold change” value (50 µM) was -0.184.
In the same order, the values of “PDIA3_P30101_85_VDCTANTNTCNK (UniProt P30101)” are -0.0212 and -0.0482.
Consider “PCNA_P12004_162_DLSHIGDAVVISCAK (UniProt P12004)”, for which the “probe-labelled cysteine peptide fold change” value is, setting by setting: (10 µM) 0.132; (50 µM) 0.127.
With “PDHX_O00330_307_STVPHAYATADCDLGAVLK (UniProt O00330)”, the “probe-labelled cysteine peptide fold change” value runs as follows: (10 µM) -0.233; (50 µM) -0.0607.
